From publication PMC3513311
Results are given in words; binding and its absence hold for the method and conditions named. Binding seen in cells or lysates may run through a third protein. A yes stands for co-enrichment or nearness to the bait. Other partners may have been found. For some assays here: No binding means not detected with the bait. Tags and fused reporters may be left off the sequences shown. Each block holds one binder with its values, some of them ahead of it.

Tests used:
[1] = target: T1, N-terminally His-tagged Cas1 (Pectobacterium atrosepticum SCRI1043) (UniProt Q6D0X0); test: affinity purification with mass spectrometry; N-terminally His-tagged bait (pTRB30 derivative) co-expressed with untagged Csy1-3 and Cas6f (pJSC11) in P. atrosepticum Δcas (PCF80); lysate on Ni-NTA, 50 mM NaH2PO4, 300 mM NaCl, wash 40 mM imidazole, elution 250 mM imidazole; SDS-PAGE (Coomassie) and LTQ-Orbitrap MS; compared with His-SdhE control
T1 sequence: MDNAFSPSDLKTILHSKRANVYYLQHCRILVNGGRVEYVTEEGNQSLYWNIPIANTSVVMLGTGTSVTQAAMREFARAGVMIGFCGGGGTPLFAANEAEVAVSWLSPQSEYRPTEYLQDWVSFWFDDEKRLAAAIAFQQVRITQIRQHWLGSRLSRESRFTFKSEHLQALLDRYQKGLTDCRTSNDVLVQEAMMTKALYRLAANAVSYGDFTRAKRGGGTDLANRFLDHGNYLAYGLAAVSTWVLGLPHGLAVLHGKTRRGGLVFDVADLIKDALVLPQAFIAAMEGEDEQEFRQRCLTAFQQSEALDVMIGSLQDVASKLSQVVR

[2] = target: T1, N-terminally His-tagged Cas1 (Pectobacterium atrosepticum SCRI1043); test: affinity purification with mass spectrometry; His-Cas1 and untagged Cas3 co-expressed from pJSC10 in P. atrosepticum Δcas (PCF80), with or without pJSC11 (Csy1-3, Cas6f); Ni-NTA, wash 40 mM imidazole, imidazole gradient elution; SDS-PAGE (Coomassie), confirmed by MS

binding [1]: no binding
B1: native (untagged) Csy3 (protein, UniProt Q6D0W6 1-337)
chain: MAKAATTLKTASVLAFERKLANSDALMYAGNWAQQDNWTAIAIQEKSVRGTISNRLKNALTSDPAKLDAEIQKANLQKVDVAALPFGADTLKIVFTLRVLGNLAQPSVCNDQDYQTALGDIITGYAQEQGFSTLAARYAENIANGRFLWRNRVGAEAIRVVVTKKGERSWEFNGEDYSLRQFSQPAGDLAALTQAIEKGLAGDASALFTVEAYVQLGNGQEVFPSQELVLDEKARNGKSKILYQVNDVAAIHSQKIGNALRTIDDWYPAADEAGPIAVEPYGSVTSRGKAYRQPREKMDFYTLLDNWVIKGDVPMPEQQHYVIATLIRGGVFGEKGE

binding [1]: no binding
B3: native (untagged) Csy2 (protein, UniProt Q6D0W7 1-310)
chain: MSTLIILRRIQVENANAIAGLTYGFPAITHFLGFTHALSRKLQASHGLTLEGCGVVSHQHQLHAYGSSWERSFALTRNPLTKEAKTAAFNEEGRMHMTVSLLIRCDGQIPADTTALCEHLKQQAQCQRLAGGTVIDIERVTVQSLPVDEAETRGVMRRLLPGFVLRDRTSLLHRHFQTLQQAKPQAEMIDAWLDFAALKMQAERDPSDETVQWKYLPKPGDGGFLTPLMIGYRAISPLYAPGEVDKTRDPHTPFCFAEAAYGIGEWQGAHRISDISQILWEYDYQNGDYHCRQVADTHSVAEDTSYEFDY

The remaining lines, values behind:

B2: native (untagged) Cas3 (enzyme, UniProt Q6D0W9 1-1098)
chain: MNILLISECNKRALVETRRILDQFAERKGERSWQTAITLEGLNTLRKLLRKTARRNTAVACHWIRSTNHTELLWVVGNLRRFNAQGSVPTNTTSRDVLRTKDENPWHSAEVFSLLAAIAGLFHDVGKANALFQAGLSGTGPRSQPYRHEWVSLRLFQAFVGEQDDKAWLTTLSMITSEAEVALLATLQQDKPTFSDSPFRTLPPLAQTIAWLIVSHHRLPVFNKSTELAPNSSEPQLSFAETWLTDHLSPQWNALNHCQIGWTPHEREQNWQFPNGTPLYSAVWREKARKFAGRALKLPSFMHFSQLDQRLTVHLARLALMLADHHYSAGAATVGWQDITYPVWANTDRKTGEYKQRLDEHCVGVGQNALLLGRSLPHLRDTLPAITRHKGFRQRSTHPRFRWQDRAFDLACSIRETSKQHGFFGINMASTGRGKTFANARIMYGLSDESTGCRFSVALGLRTLTLQTGDALRQRLKLDEDDLAVLIGSQAVQDLHEMRKENQQRQQNTPQTGSESADPLFSEHQYVRYDGSLDDGRLKAWLERSPTLHQLLSAPVLITTIDHLMPATEALRGGHQIAPMLRLLTADLVLDEPDDFGLEDLPALCRLVNWAGMLGSRVLLSSATLPPALIRALFDAYLDGRTAWQQAYGTPNTPLNVCCGWFDEFDCQHEQYGDVKDFMVRHDAFVHQRLKNLTKDELPLRFATIVPVSSPSKNADDVYLAVAQAIHPRMFDLHSQHHQQHENGKTVSLGLVRMANIDPLVAVARQLLAIPSPPDTCIHYCIYHSQHPLAMRSHIEQRLDAALMRNDADALWQVEEIRQAIEKSSQRHHVFVALATSVAEVGRDHDYDWAIVEPSSMRSLIQPAGRILRHRQDKQYVPKTPNIYLLSHNIRALRGKDIAYCKPGFESQDDSLDTHDLHQLLQEKEYRHLSAAPRIVQPMSFAKPLSLVALEHAVLGKTLLGLKNKKLDDLKRPPAAFWWRAHPHWNGELQRRTPFRQSAKDEAYTLWIADDDEEPVFMVQDDGPSGWKQSDIARPVTLNMAEGVSAWIEPDYHALYQQLAEEKQWELSWVSARFGEIRLREEEDWYWHPLLGVFGALS
binding [2]: binds

B4: native (untagged) Csy1 (protein, UniProt Q6D0W8 1-443)
chain: MRNGLPEFILSYINNRKQAKLDAFDKEAEKKRATLSGEALSVAELELAKARREIEQKHEVRNWLTDAASRAGQISLVTHALKFTHSDAKGSSVFNAETVEDATTLSTATLAQPAIDAVGNAAALDVAKLLQTEHDGDSLVAALQRGDNRALEALAENPEQLAQWLTGFQQVFTNRQPSSHKLAKQIYFPLANGEYHLLSPLYSSSLAHALHQRISAVRFGDEAKAIRQAQRTNQWHDQLSISYPNLAVQNMGGTKPQNISALNSSRSGRSYLLSSAPPQWNSIEKPPQQHESIFRPRGEVDYHTRATLAQMQRFLLSVKDVENNRDIRQQRLHYLDQLIDQLFFYVASVQNLPVGWSAESELKRAQQLWLDPYRAETDTVFRREREAGDWQQAVAYEFGRWLNRRLKHENLIFGEVERREWSTAALFKRRMREMESALKEELA
binding [1]: no binding

B5: native (untagged) Cas6f (enzyme, UniProt Q6D0W5 1-184)
chain: MDHYIDIRVQPDPEFTASQLLNALFAKLHRVLGQLANGKIGISFPEVGKTLGECLRLHGTEDALSTLEKTSWLKGLRDYTQVSECKVVPNGVKFRTVRRVQLKSSAERLRRRSVSKGWLTAAEAAARIPDAVEKRSALPFVQIKSLSNGQMFFVFVEHGPLQNAPTAGRFSSYGLSTEATVPWF
binding [1]: no binding
